Data as given in PubChem BioAssay AID1259259 (Sanger Institute, 2017).
This is one part, drawn at random, of 794 deposited reagents. Of all reagents, 9 (1.1%) were called active. 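Calls rest on knock-down alone, not drug synergy; viability values seem capped at 1.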 Further read-outs or replicates are left out here. The record does not give: the amount of reagent, the time to read-out.

Assay: 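Synthetic lethal kinase partners of anchor drugs in colorectal cancer cells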 (primary screen)
Cells: SW1463 human colorectal cancer cells
Knock-down reagent: siRNA pool against human genes
Challenge: DMSO vehicle, or one anchor drug: BYL719 at 1 µM, cetuximab at 5 µg/ml, or trametinib at 10 nM
Detection: 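Viability relative to control pool 2 (non-targeting) averaged over replicates, robust z-score for knock-down with no drug, and for each anchor drug the mean synergy score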
Direction: robust z-score, knock-down alone: higher = more viable cells after knock-down
Rule for the call: 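Knock-down called essential when its robust z-score without drug falls below -3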
Calls: active = essential: viability loss from knock-down alone; inactive = no change from knock-down alone

DLG1 (discs large MAGUK scaffold protein 1)
- robust z-score, knock-down alone: 0.393
- Call: inactive

TP53BP1 (tumor protein p53 binding protein 1)
- robust z-score, knock-down alone: 1.13
- Call: inactive

KDR (kinase insert domain receptor)
- robust z-score, knock-down alone: 0.0422
- Call: inactive

ULK1 (unc-51 like autophagy activating kinase 1)
- robust z-score, knock-down alone: -0.361
- Call: inactive

RIPK2 (receptor interacting serine/threonine kinase 2)
- robust z-score, knock-down alone: 0.011
- Call: inactive

MAP3K19 (mitogen-activated protein kinase kinase kinase 19)
- robust z-score, knock-down alone: -0.0777
- Call: inactive

NUP62 (nucleoporin 62)
- robust z-score, knock-down alone: -0.109
- Call: inactive

CKMT2 (creatine kinase, mitochondrial 2)
- robust z-score, knock-down alone: 0.243
- Call: inactive

EIF2AK1 (eukaryotic translation initiation factor 2 alpha kinase 1)
- robust z-score, knock-down alone: 0.223
- Call: inactive

PRKX (protein kinase cAMP-dependent X-linked catalytic subunit)
- robust z-score, knock-down alone: 1.13
- Call: inactive

PI4K2B (phosphatidylinositol 4-kinase type 2 beta)
- robust z-score, knock-down alone: -1.45
- Call: inactive

TNK1 (tyrosine kinase non receptor 1)
- robust z-score, knock-down alone: -1.49
- Call: inactive

RNASEL (ribonuclease L)
- robust z-score, knock-down alone: 1.13
- Call: inactive

PRKCSH (PRKCSH beta subunit of glucosidase II)
- robust z-score, knock-down alone: -1.01
- Call: inactive

TEK (TEK receptor tyrosine kinase)
- robust z-score, knock-down alone: -0.377
- Call: inactive

PGK2 (phosphoglycerate kinase 2)
- robust z-score, knock-down alone: 1.13
- Call: inactive

RIOK3 (RIO kinase 3)
- robust z-score, knock-down alone: 1.13
- Call: inactive

TRIO (trio Rho guanine nucleotide exchange factor)
- robust z-score, knock-down alone: 0.722
- Call: inactive

CDKN2D (cyclin dependent kinase inhibitor 2D)
- robust z-score, knock-down alone: -0.842
- Call: inactive

Copied from the list.
For “Call”, TEK (TEK receptor tyrosine kinase) is entered as inactive
PGK2 (phosphoglycerate kinase 2), Call = inactive
